Values from PubChem BioAssay AID1259314 (Drosophila RNAi Screening Center, 2017)
Aim: 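Genes whose knock-down alters cell survival under toxic manganese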 (primary screen). System: Drosophila S2R+ cells. Reagents: long dsRNA against Drosophila genes. Duration: 5 days (4 days knock-down, then 1 day metal exposure). Challenge: manganese chloride added to 15 mM for 24 hours. Read-out: 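Cellular ATP measured by luciferase light, scaled to the plate mean, averaged across replicates and z-scored over plates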. Scale: mean ATP z-score: higher = more ATP than the plate average, more viable cells under manganese. Active means: 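Called active when the mean ATP z-score is above 1.5 or below -1.5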. Meaning of the calls: active = strong ATP change, up or down; inactive = no strong ATP change.
Shown is a random part of about 3,100 reagents. In the full data, 289 (9.3%) are marked active. 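Active includes both higher and lower ATP than plate average; check the z-score sign for direction.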 The numbers tell different reagents against one gene apart. Names joined by + are all predicted targets of the reagent. The record does not give: the amount of reagent.

AkhR #1 | mean ATP z-score = -0.768; activity call = inactive
AkhR #2 | mean ATP z-score = 0.709; activity call = inactive
CG34234 + Dh44-R2 | mean ATP z-score = -0.264; activity call = inactive
SerT #1 | mean ATP z-score = 0.255; activity call = inactive
SerT #2 | mean ATP z-score = -0.653; activity call = inactive
Tsp74F | mean ATP z-score = -0.745; activity call = inactive
twz #1 | mean ATP z-score = 0.507; activity call = inactive
twz #2 | mean ATP z-score = 0.773; activity call = inactive
foi #1 | mean ATP z-score = -0.984; activity call = inactive
foi #2 | mean ATP z-score = -1.44; activity call = inactive
CG1161 | mean ATP z-score = 1.06; activity call = inactive
kek2 #1 | mean ATP z-score = 0.296; activity call = inactive
kek2 #2 | mean ATP z-score = -0.53; activity call = inactive
CG1607 #1 | mean ATP z-score = 0.579; activity call = inactive
CG1607 #2 | mean ATP z-score = 0.0336; activity call = inactive
Arl6IP1 #1 | mean ATP z-score = -0.0957; activity call = inactive
Arl6IP1 #2 | mean ATP z-score = 1.42; activity call = inactive
Polr3I | activity call = inactive
Gr39a #1 | mean ATP z-score = 0.61; activity call = inactive
Gr39a #2 | mean ATP z-score = -0.158; activity call = inactive
Gr39a #3 | mean ATP z-score = 1.18; activity call = inactive

Laid out differently: entries from further up
gene knocked down | reagent | mean ATP z-score | activity call
SerT | 1 | 0.255 | inactive
SerT | 2 | -0.653 | inactive
Tsp74F | 1 | -0.745 | inactive

The listing continues.
Zip89B #1 | mean ATP z-score = -0.0554; activity call = inactive
Zip89B #2 | mean ATP z-score = -0.623; activity call = inactive
TrissinR #1 | mean ATP z-score = 1.99; activity call = active
TrissinR #2 | mean ATP z-score = 0.556; activity call = inactive
COX6AL2 #1 | mean ATP z-score = -1.23; activity call = inactive
COX6AL2 #2 | mean ATP z-score = 0.0718; activity call = inactive
Nach #1 | mean ATP z-score = 1.23; activity call = inactive
Nach #2 | mean ATP z-score = 0.719; activity call = inactive
TyrRII | mean ATP z-score = -0.796; activity call = inactive
Gr97a | mean ATP z-score = -0.109; activity call = inactive
PIG-C | mean ATP z-score = -0.00968; activity call = inactive
